From PubChem BioAssay AID504444 (National Center for Advancing Translational Sciences (NCATS), 2011)
In all, about 360,000 compounds went through this assay and about 7,500 (2.1%) were called active. This list was built around the results that the source calls inconclusive (neither active nor inactive); the mix of calls is not that of the screen. The call rests on the fitted dose curve; in most records, active means well fitted inhibition curve with a large enough effect; inconclusive means small, poorly fitted or top-dose-only effect, or effect the other way; inactive means flat fitted curve, though single readings scatter. Potencies of inconclusive entries are doubtful fits and often do not repeat.

experiment: Nrf2 qHTS screen for inhibitors; conditions: A549 ARE-Fluc reporter, luciferase luminescence, 18-24 h; activity change, negative = inhibition: at 46 µM (top of the series); further: nearly all actives have a fitted effect of over 60% in size
Procedure, shortened: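 In this cell-based qHTS, ARE-driven firefly luciferase in A549 cells reports Nrf2 activity; the luminescent signal after BugLite lysis is the measured value, with a prior CellTiter-Fluor read for cell health.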
On the % scale 0 is the no-effect control and ±100 the full control effect; potency means the concentration at half of the fitted maximal effect.

Q: For CCCc1cc(=O)oc2cc(OC(=O)CN3C(=O)NC4(CCCC4)C3=O)ccc12, which “activity change, negative = inhibition” value is on record?
A: The value was inactive: 18.5%.

Q: For Cc1cc(C([O-])=C(C(=S)Nc2ccccc2)[n+]2ccccc2)c(C)n1-c1ccccc1, which Potency is on record?
A: Its Potency is inconclusive: 9.2 µM [activator, partial curve].

Q: For O=C(N=Nc1c(O)n(Cc2ccccc2)c2ccccc12)c1cc2ccccc2cc1O, which Potency is on record?
A: Its Potency is inconclusive: 29.1 µM [activator, single point].

Q: With COc1ccc(C(=O)Oc2cc(-c3ccc(OC)c(OC)c3)cc(=O)c3c(C)oc(C)c23)cc1 as the compound, how does the “activity change, negative = inhibition” value read?
A: Its value is inactive: -6.68%.

Q: With COC(=O)C(NNc1ccccc1)(NC(=O)c1cccc(F)c1)C(F)(F)F (stereo not drawn) as the compound, how does the Potency read?
A: The Potency was inconclusive: 18.4 µM [falling, partial curve].

Q: For CC/C(=N\NC(N)=O)c1ccc(OC(F)F)cc1, which “activity change, negative = inhibition” value is on record?
A: The value was inactive: 10.6%.

Q: For COc1cc(OC)cc(C(=O)Nc2ccc3c(c2)n(C)c(=O)n3C)c1, which Potency is on record?
A: Its Potency is inconclusive: 18.4 µM [falling, partial curve, poor fit].

Q: Which Potency does the source give for O=C(Cc1ccccc1)Nc1cccc(N2C(=O)C=CC2=O)c1 here?
A: Its Potency is inconclusive: 20.6 µM [falling, single point].

Q: For C[C@@H](C(=O)Nc1nc2ccc(F)cc2s1)N1C(=O)C2CC=CCC2C1=O (stereo partly drawn), which Potency is on record?
A: The Potency was inconclusive: 29.1 µM [activator, single point].

Q: With COc1ccc(OC)c(C2=Nn3c(nnc3C3CCCCC3)SC2)c1 as the compound, how does the Potency read?
A: The Potency was active: 20.6 µM.

Q: With CCCOc1cccc(C(=O)Nc2cccc(NC(=O)c3ccc(Cl)cc3Cl)c2)c1 as the compound, how does the Potency read?
A: The Potency was inconclusive: 18.4 µM [falling, single point].

Q: For Clc1ccc(-n2nnc(-c3cccnc3)n2)cc1Cl, which Potency is on record?
A: Its Potency is inconclusive: 16.4 µM [activator, partial curve].

Q: For COCC(=O)Nc1cc(C(=O)Nc2ccccc2C)ccc1Cl, which Potency is on record?
A: The Potency was inconclusive: 0.0041 µM [falling, full curve, poor fit].

Q: For COc1ccc([C@@H](C)NC(=O)CCc2nnc(-c3cc(C)on3)o2)cc1, which Potency is on record?
A: Its Potency is inconclusive: 0.58 µM [activator, full curve, poor fit].

Q: For CC(C)N(Cc1nc(-c2ccc(Cl)cc2)no1)C(=O)c1ccco1, which Potency is on record?
A: The Potency was inconclusive: 29.1 µM [falling, single point].

Q: With Cc1ccc(Nc2nc(Nc3ccc(C)cc3)nc(SC3=NCCS3)n2)cc1 as the compound, how does the Potency read?
A: Its Potency is inconclusive: 29.1 µM [falling, single point].

Q: With OCCCNc1ncnc2sc(-c3ccccc3)cc12 as the compound, how does the Potency read?
A: The Potency was inconclusive: 23.1 µM [falling, single point].

Q: With COc1cccc(C(=O)NCCn2ccc3ccccc32)c1 as the compound, how does the Potency read?
A: The Potency was inconclusive: 4.61 µM [activator, partial curve, poor fit].
